The record followed here is PMC6420625.

By UniProt entry, the sequences of proteins in these tests, tags left out.
UniProt F2YGR7: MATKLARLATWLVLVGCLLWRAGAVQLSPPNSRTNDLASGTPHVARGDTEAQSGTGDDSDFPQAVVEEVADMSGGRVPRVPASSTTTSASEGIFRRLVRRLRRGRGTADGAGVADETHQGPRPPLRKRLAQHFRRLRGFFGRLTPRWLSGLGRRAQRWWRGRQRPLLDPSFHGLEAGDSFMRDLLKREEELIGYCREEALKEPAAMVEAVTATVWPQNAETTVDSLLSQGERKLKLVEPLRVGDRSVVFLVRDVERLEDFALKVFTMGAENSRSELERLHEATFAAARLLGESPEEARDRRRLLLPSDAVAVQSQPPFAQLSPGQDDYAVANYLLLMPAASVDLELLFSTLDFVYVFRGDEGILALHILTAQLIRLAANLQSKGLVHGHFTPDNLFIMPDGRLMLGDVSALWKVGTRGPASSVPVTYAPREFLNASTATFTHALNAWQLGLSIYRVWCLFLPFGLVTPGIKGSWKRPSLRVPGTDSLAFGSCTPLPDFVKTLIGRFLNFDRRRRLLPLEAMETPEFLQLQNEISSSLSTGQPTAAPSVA
UniProt U5NGE1: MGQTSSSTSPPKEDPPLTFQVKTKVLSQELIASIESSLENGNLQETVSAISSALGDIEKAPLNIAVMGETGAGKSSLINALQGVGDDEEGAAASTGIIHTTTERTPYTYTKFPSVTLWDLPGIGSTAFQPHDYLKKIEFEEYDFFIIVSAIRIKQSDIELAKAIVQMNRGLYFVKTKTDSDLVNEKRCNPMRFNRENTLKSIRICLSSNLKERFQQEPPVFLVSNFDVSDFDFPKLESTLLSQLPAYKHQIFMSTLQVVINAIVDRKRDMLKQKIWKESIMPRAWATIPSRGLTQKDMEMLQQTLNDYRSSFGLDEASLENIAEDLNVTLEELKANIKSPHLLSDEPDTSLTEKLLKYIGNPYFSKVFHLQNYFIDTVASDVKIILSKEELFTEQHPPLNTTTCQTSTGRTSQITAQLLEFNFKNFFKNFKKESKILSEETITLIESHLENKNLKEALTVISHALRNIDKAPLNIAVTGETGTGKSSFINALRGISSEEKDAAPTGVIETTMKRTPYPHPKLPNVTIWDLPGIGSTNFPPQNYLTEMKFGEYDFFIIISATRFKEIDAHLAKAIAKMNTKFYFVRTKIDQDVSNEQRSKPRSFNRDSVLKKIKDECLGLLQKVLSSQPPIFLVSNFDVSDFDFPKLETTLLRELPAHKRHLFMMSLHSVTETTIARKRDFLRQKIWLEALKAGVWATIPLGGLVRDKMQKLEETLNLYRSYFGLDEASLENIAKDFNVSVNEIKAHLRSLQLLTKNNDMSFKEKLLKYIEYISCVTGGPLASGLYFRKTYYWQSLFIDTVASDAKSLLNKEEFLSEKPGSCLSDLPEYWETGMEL

The target of the test is ROP5B (T. gondii RH), yeast two-hybrid fusion (Toxoplasma gondii, strain RH) (UniProt F2YGR7). Put plainly: two-hybrid; S. cerevisiae PJ69-4α, Gal4 AD (pGAD-C3) and BD (pGBD-C3) fusions; growth on triple dropout medium (SD/-Leu/-Trp/-His) with 1 mM 3-AT, 5 to 10 days at 30 °C.

No constants are given. Whether binding was seen depends on the method and setting. Some binding calls cover weakened binding; strength is not graded here.

Consider “Irgb2-b1CIM, yeast two-hybrid fusion (from UniProt U5NGE1 1-835)”, for which the binding entry is given as “binds”.
